Test results taken from patent US20060093607A1.
No constants are given. Whether binding was seen depends on the method and setting. Some entries that bind do so weakly or less than the wild type.

Sequences of proteins named here, by UniProt entry; tags and fusion partners are left off. A change or cut given only in a name is not applied to a line headed by its entry.
UniProt P06756: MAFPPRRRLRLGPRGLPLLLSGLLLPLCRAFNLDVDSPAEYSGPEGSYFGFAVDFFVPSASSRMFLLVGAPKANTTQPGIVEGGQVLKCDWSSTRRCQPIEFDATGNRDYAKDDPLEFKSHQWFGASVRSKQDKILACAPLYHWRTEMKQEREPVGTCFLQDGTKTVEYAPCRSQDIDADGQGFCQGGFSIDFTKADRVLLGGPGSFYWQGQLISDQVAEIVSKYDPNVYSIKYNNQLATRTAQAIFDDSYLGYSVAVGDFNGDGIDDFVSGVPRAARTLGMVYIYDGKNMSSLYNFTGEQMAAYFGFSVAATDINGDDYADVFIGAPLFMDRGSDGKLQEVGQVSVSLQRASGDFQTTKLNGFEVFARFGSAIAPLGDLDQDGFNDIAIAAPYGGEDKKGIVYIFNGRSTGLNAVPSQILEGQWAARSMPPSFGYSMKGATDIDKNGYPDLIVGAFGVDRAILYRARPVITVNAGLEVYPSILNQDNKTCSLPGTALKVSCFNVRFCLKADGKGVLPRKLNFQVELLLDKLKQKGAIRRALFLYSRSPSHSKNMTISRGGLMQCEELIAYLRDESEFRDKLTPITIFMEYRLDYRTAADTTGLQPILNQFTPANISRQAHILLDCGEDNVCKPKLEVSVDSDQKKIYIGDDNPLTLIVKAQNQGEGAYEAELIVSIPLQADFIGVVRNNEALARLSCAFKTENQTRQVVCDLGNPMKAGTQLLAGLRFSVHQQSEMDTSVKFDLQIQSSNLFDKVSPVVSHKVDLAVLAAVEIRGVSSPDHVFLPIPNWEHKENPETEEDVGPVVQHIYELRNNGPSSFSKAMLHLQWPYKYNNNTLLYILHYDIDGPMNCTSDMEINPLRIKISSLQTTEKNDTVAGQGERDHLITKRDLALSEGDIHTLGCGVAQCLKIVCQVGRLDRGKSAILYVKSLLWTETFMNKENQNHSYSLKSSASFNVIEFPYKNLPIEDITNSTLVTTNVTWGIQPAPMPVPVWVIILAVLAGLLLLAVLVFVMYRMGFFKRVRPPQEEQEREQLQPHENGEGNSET

B1: recombinant mANGPTL4 (murine angiopoietin-like 4 protein) (ligand, mouse, UniProt Q9Z1P8 23-410, looked up)
chain: AQGRPAQPEPPRFASWDEMNLLAHGLLQLGHGLREHVERTRGQLGALERRMAACGNACQGPKGKDAPFKDSEDRVPEGQTPETLQSLQTQLKAQNSKIQQLFQKVAQQQRYLSKQNLRIQNLQSQIDLLAPTHLDNGVDKTSRGKRLPKMTQLIGLTPNATHLHRPPRDCQELFQEGERHSGLFQIQPLGSPPFLVNCEMTSDGGWTVIQRRLNGSVDFNQSWEAYKDGFGDPQGEFWLGLEKMHSITGNRGSQLAVQLQDWDGNAKLLQFPIHLGGEDTAYSLQLTEPTANELGATNVSPNGLSLPFSTWDQDHDLRGDLNCAKSLSGGWWFGTCSHSNLNGQYFHSIPRQRQERKKGIFWKTWKGRYYPLQATTLLIQPMEATAAS
B2: IgG-hANGPTL4-Nterminal (1-183) (Fc fusion, not shown: large carriers)
chain: GPVQSKSPRFASWDEMNVLAHGLLQLGQGLREHAERTRSQLSALERRLSACGSACQGTEGSTDLPLAPESRVDPEVLHSLQTQLKAQNSRIQQLFHKVAQQQRHLEKQHLRIQHLQSQFGLLDHKHLDHEVAKPARRKRLPEMAQPVDPAHNVSRLHR

Columns and labels:
[1] = biological target: integrin αVβ5 (USBiological, 37K, Swampscott, Mass.) (UniProt P06756); assay: ELISA, αVβ5-coated plates (legend of FIG. 13, Panel A)
[2] = biological target: integrin αVβ5 (USBiological, 37K, Swampscott, Mass.) (UniProt P06756); assay: ELISA, αVβ5-coated plates, anti-Flag-HRP detection

| Binder | binding [1] | binding [2] |
| --- | --- | --- |
| B1 | binds | binds |
| B2 | binds | binds |
